Values of other authors, collected in patent US12274711B2, “Method of determining Acute Myeloid Leukemia response to treatment with farnesyltransferase inhibitors” (Janssen Pharmaceutica NV, priority 2010, dated 2025).
Where two headings read alike, the source gives them in different places. At least one compound was matched to its structure with a doubt left.

Tests used:
[1] = test system: cell lines expressing N-ras, H-ras or K-ras mutations; conditions: cited from earlier work
AML and MDS = conditions: background statement, cited from earlier work

Cn1cncc1[C@@](N)(c1ccc(Cl)cc1)c1ccc2c(c1)c(-c1cccc(Cl)c1)cc(=O)n2C [tipifarnib]
inhibition of cell proliferation ([1]; cell lines expressing N-ras or H-ras mutations): significant inhibition of cell proliferation
inhibition of cell lines ([1]; cell lines with K-ras mutations, at much higher doses): only about half of cell lines with K-ras mutations, when tested, were inhibited
complete response rates in AML and MDS (AML and MDS): up to 15%
complete response rates in AML and MDS (AML and MDS; listed as Tipifarnib): ≤ 15%
